Measurements reported in PubChem BioAssay AID686943 (Drosophila RNAi Screening Center, 2013)
The screen tested about 23,000 reagents; below is an unselected part of those with a known target gene and a result. 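Extra replicates exist only for a retested subset of genes; insulin dose and duration not given; both raised and lowered dpERK matter.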 The numbers tell different reagents against one gene apart. Names joined by + are all predicted targets of the reagent. Further read-outs or replicates are left out here. Reagent sequences are not shown. Not stated in the record: the amount of reagent, the time to read-out.

Test: 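Fly genes whose loss alters ERK activation after insulin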 (primary screen)
System: Drosophila S2R+ haemocyte-like cells expressing YFP-tagged ERK (Rolled)
Reagents: long dsRNA against Drosophila genes
Conditions: insulin stimulation versus unstimulated cells; dose and duration not given
Read-out: 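Per-plate z-scores of phospho-ERK immunostaining normalised to YFP-tagged ERK, measured with and without insulin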
Direction: replicate 1, z-score of dpERK with insulin: higher = more active ERK per ERK-YFP after insulin

replicate 1, z-score of dpERK with insulin, by gene knocked down and reagent
Cyp4p2 (GeneID 35946): #1 0.46
CG13248 (GeneID 40254): #1 -0.08
CG11997 (GeneID 41093): #1 -0.48
nesd (GeneID 35298): #1 -0.23
PIP82 (GeneID 31791): #1 -1.36
SCCRO4 (GeneID 40231): #1 0.95
Cbp53E (GeneID 36905): #1 0.41
Taldo (GeneID 37804): #1 0.24
CSN1a (GeneID 34857): #1 1.59
Srlp (GeneID 41533): #1 -5.33
alphaCOP (GeneID 38199): #1 1.59
Patronin (GeneID 36978): #1 -0.42; #2 -1.27; #3 -0.94
Sgt (GeneID 35052): #1 -2.86
CG13699 (GeneID 40008): #1 -1.59
Osi17 (GeneID 40774): #1 -0.33
CG15879 (GeneID 38274): #1 0.22
Act57B (GeneID 37368): #1 -1.51
CG13538 (GeneID 37667): #1 -0.05
Or45a (GeneID 35958): #1 -0.02
alpha-Man-Ic (GeneID 318624): #1 0.23
Nepl15 (GeneID 42701): #1 0.5
Adf1 (GeneID 47082): #1 0.25; #2 2.41
CG1986 (GeneID 31925): #1 -1.87
Klp31E (GeneID 34422): #1 0.6
alpha4GT1 (GeneID 33512): #1 -0.15
Cyp6u1 (GeneID 35608): #1 0.63
Dpy-30L2 (GeneID 38480): #1 0.16
CG6294 + CG6299: #1 -0.56
CG10814 (GeneID 36481): #1 0.14
stau (GeneID 37065): #1 0.53
CG3511 (GeneID 37926): #1 0.31
mag (GeneID 40267): #1 0.2
Cyp9f2 (GeneID 41520): #1 0.87
out (GeneID 32926): #1 1.22
CG31997 (GeneID 319064): #1 -0.1
hoip (GeneID 44173): #1 0.13
Nsf2 (GeneID 41694): #1 -0.65
CG14316 (GeneID 42163): #1 0.09
Klp67A (GeneID 39068): #1 0.03
TwdlG (GeneID 40535): #1 0.28
Cpr57A + Obp57d: #1 -0.4; #2 0.9
Ir7d (GeneID 7354416): #1 -0.21
CG30287 (GeneID 246530): #1 -1.08
mTTF (GeneID 34837): #1 -0.04
GABA-B-R1 (GeneID 34878): #1 -0.19
Mybbp1A (GeneID 31010): #1 -0.6
VepD (GeneID 117331): #1 0.29
Mps1 (GeneID 42126): #1 0.44
CG10512 (GeneID 40339): #1 0.14
Baldspot (GeneID 39860): #1 0.37
CG5254 (GeneID 31020): #1 -0.62
mRpL37 (GeneID 41293): #1 -1.02
CG4115 (GeneID 41499): #1 -1.37
